# Measured values: PubChem BioAssay AID652054 (National Center for Advancing Translational Sciences (NCATS), 2013)
# The chains behind the UniProt entries cited, without tags or fusion partners.
# UniProt P35462, whole entry, looked up: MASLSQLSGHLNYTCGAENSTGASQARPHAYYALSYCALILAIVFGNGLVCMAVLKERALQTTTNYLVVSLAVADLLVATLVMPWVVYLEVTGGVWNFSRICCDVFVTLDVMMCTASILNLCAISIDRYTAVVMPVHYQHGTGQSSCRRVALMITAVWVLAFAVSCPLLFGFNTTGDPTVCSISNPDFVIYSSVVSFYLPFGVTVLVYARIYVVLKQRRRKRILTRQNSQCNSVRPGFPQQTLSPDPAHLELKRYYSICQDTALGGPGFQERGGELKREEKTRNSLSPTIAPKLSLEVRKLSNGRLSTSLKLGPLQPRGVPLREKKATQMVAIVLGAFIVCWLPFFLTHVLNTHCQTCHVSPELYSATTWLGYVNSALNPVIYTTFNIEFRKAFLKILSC
# About 9,100 (2.5%) of roughly 360,000 compounds were called active. Inconclusive results, whose numbers are uncertain, are shown with a selection of clear calls. Rule as the data show it: active = max response below about -50%; inconclusive = no clear call, values can overlap the other calls; inactive = above that.
# Target: D(3) dopamine receptor (Homo sapiens) (UniProt P35462)
# Assay: qHTS of D3 Dopamine Receptor Antagonist: qHTS
# Settings: D3R cells, DiscoveRx beta-arrestin luminescence, antagonist mode; hits give low values
# Outline: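 Cells expressing the human receptor were seeded at 1500 cells/well, incubated overnight at 37 degrees C in 5% CO2, then exposed to library compounds with dopamine controls for 90 minutes at 37 degrees C before luminescent detection.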
# % is scaled to controls: 0 for no effect and ±100 for the full control effect.
row,Compound,"max response, negative = inhibition"
1,O=C(Nc1ccccc1)c1ccc(NCCN2C(=O)CCC2=O)c([N+](=O)[O-])c1,inconclusive: -39.3%
2,COc1ccc(C(=O)NN/C=C/C(=O)c2ccc(Br)cc2)cc1,inactive: -28.9%
3,CCOC(=O)C1(CCOC)CCN(Cc2nc(-c3cccs3)oc2C)CC1,inconclusive: -48.4%
4,Cc1ccc(S(=O)(=O)NC2OC(=O)C(Cl)=C2Cl)cc1 (centres undefined),inconclusive: -40.8%
5,O=C1C(N2CCOCC2)=C(n2nnc3ccccc32)C(=O)c2ccccc21,inactive: -23.7%
6,CCOC(=O)C1(Cc2cccc(Cl)c2)CCCN(C(=O)c2ccc(COC)s2)C1 (centres undefined),inactive: -8.21%
7,CCN1CCCC1CNC(=O)c1ccc(Sc2ccccc2Cl)c([N+](=O)[O-])c1 (centres undefined),active: -75%
8,Cc1sc2ncnc(NCCN3CCOCC3)c2c1C,inconclusive: -33.6%
9,O=C(NN=C1CCCCCC1)c1cc(-c2ccccc2)nc2ccccc12,inconclusive: -43.2%
10,COc1ccc(C(=O)NC2CC2)cc1OC1CCN(Cc2ccc(F)cc2)CC1,inconclusive: -31.8%
11,CCN1CCN(c2nc(C)nc3c2sc(=S)n3C)CC1,inconclusive: -44.8%
12,COc1cccc(F)c1C(=O)NC(=O)Nc1ccc2nc(C)oc2c1,inactive: 6.72%
13,O=C(COC(=O)CSc1nnc(-c2ccc(Cl)cc2)o1)NCc1ccc2c(c1)OCO2,inactive: 40%
14,C/C(=C\c1ccccc1)C(=O)Nc1nccs1,inactive: -13.7%
15,CCN(CC)c1nc(-c2ccccc2)ncc1S(=O)(=O)c1ccc(C)cc1,inconclusive: -32.2%
16,Cc1nn(-c2cc(N3CCCC3)ccc2[N+](=O)[O-])c(=O)c2ccccc12,active: -59.1%
17,CC(C)=CCC/C(C)=C/CNC(=O)C[C@H]1C[C@H](C(=O)N2CCOCC2)[C@@]2(C)c3[nH]c4cc(-c5ccco5)ccc4c3CCN2C1=O,inactive: -7.64%
18,O=C(CCl)Nc1cc(-c2ccccc2)nn1-c1ccccc1,inconclusive: -48.9%
19,CCOc1ccccc1CNC(=O)CCN1C(=O)COc2ccccc21,inconclusive: -30.1%
20,CN(CCc1nc2ccc(Cl)cc2[nH]1)Cc1nc(CC2CC2)no1,inconclusive: -37.2%
21,COc1cccc(-c2ncc3ccccc3c2COC(=O)c2ccc(Br)cc2)c1,inconclusive: -38.5%
22,O=C(c1ccc([N+](=O)[O-])cc1)N(Cc1ccccc1)c1ccccn1,active: -54.7%
23,O=C(Nc1cccc(F)c1)c1coc(=O)c(Br)c1,inconclusive: -43.9%

row,Compound,"max response, negative = inhibition"
1,CCCCC(=O)Nc1ccc(C(=O)NCCN2CCOCC2)cc1,inactive: 0%
2,O=[N+]([O-])c1cccc(-c2nnc(-c3ccc4c(c3)OCO4)o2)c1,inactive: 26.1%
3,Cn1c(/N=C/c2c(O)ccc3ccccc23)nc2ccccc21,inconclusive: -32.4%
4,O=C(CSc1nc(C2CCCCC2)nc2ccccc12)NCc1ccc2c(c1)OCO2,inactive: -11.5%
5,O=[N+]([O-])c1ccc(CN2CCN(Cc3c[nH]c4ccccc34)CC2)cc1,inconclusive: -39.2%
6,Cc1ccc2cc(CN(C(=O)c3cccnc3)C(C)C)c(=O)[nH]c2c1,inconclusive: -48%
7,Cc1cccc([C@@H]2[C@@H]3C(=O)N(C)C(=O)[C@@H]3[C@@H]3C(=O)Nc4ccccc4C(=O)N23)c1,inconclusive: -40.3%
8,O=C(c1ccc([N+](=O)[O-])o1)N1CCOCC1,inactive: -6.28%
9,Cc1cccc2cc(/C=N/NC(=O)c3ccncc3)c(Cl)nc12,inactive: 24.8%
11,Cc1ccc(C(=O)/C=C/c2ccc3c(c2)OCCO3)c(O)c1,inactive: 2.48%
12,O=c1[nH]c(/C(=N\O)c2ccccc2)no1,inconclusive: -43.4%
13,CCOc1ccc2c(c1)-c1c(ssc1=S)C(C)(C)N2C(=O)c1ccco1,inconclusive: -42%
14,Cc1ccc(C(=O)NC(NC(=O)c2ccc(C)cc2)C(Cl)Cl)cc1,inconclusive: -48.1%
15,C=CCn1c(O)c(N=NC(=S)Nc2cccc(C)c2)c2ccccc21,inactive: -22%
16,CCNC(=O)C(=O)N/N=C/c1cc([N+](=O)[O-])ccc1O,inconclusive: -40.2%
17,OCCC#Cc1ccc(CN2CCN(Cc3ccccc3)C(CCO)C2)cc1 (centres undefined),inconclusive: -39%
18,CCOc1ccc(NC(=O)CNC(=O)c2ccc(OC)c(OC)c2)cc1,active: -54%
19,O=C(/C=C/c1ccccc1)NCCN1CCOCC1,inconclusive: -38%
20,CCCn1c(C2CCCN2c2nc(-c3cccc(Br)c3)cs2)nc2ccccc21 (centres undefined),inconclusive: -40.9%
21,COc1ccc([C@H]2CC(=O)C=C(c3ccc(C)cc3)C2)cc1,active: -60.5%
22,CC(=O)c1c(C)[nH]c(C(=O)OCC(=O)NC(C)c2ccccc2)c1C (centres undefined),inconclusive: -31.4%
23,COc1ccc2c(c1)CCC1C2=NN(/C(C)=C/C(C)=O)C1c1cccc(F)c1 (centres undefined),active: -58%

row,Compound,"max response, negative = inhibition"
1,O=c1[nH]c(=S)[nH]c2c1C(c1cccc(C(F)(F)F)c1)OC(CCc1ccccc1)C2 (centres undefined),active: -71.3%
2,CCOc1ccc(NC(=O)CN(c2ccc([N+](=O)[O-])cc2)S(=O)(=O)c2ccccc2)cc1,inconclusive: -42%
3,Nc1nc(-c2cc(O)ccc2[N+](=O)[O-])cc(-c2ccccc2)c1[N+](=O)[O-],inactive: 91.9%
4,Cc1ccc(-c2nnc(N3CCCCC3)c3ccccc23)cc1S(=O)(=O)N1CCN(C)CC1,active: -83.4%
5,CC(C)(C)Nc1nc(Cl)nc(N(C#N)CN2C(=O)c3ccccc3S2(=O)=O)n1,inconclusive: -39.7%
6,COCCn1c(=N)c(C(=O)NCc2ccco2)cc2c(=O)n3ccccc3nc21,inconclusive: -46.3%
7,COc1ccc2cc(C(=O)/C=C/c3cc(OC)c(O)c(OC)c3)ccc2c1,inactive: -29.3%
8,CCOc1ccc(N=C(/C(C(=O)C(=O)N2CCOCC2)=C(/O)c2ccccc2)c2ccccc2)cc1,inactive: 2.44%
9,Cc1ccc(-c2[nH]nc3c2C(c2ccc(OC(=O)N4CCOCC4)cc2)C(C#N)=C(N)O3)cc1 (centres undefined),inconclusive: -30.6%
10,COc1ccccc1N1CCN(Cc2nc(N)nc(Nc3ccccc3)n2)CC1,active: -71.1%
11,CCOC(=O)CCc1c(C)nc(SCCN2CCCC2)c(C#N)c1C,active: -55.5%
12,Cc1ccc(-c2cc(C(F)F)nc(N3CCC(C)CC3)n2)cc1,inconclusive: -32.2%
13,CCCCn1c(N)c(N(CCOC)C(=O)CCCc2nc3ccccc3s2)c(=O)[nH]c1=O,inconclusive: -32.1%
14,COc1ccc(/C=C/c2nc3ccccc3n2C)cc1,inactive: -0.77%
15,COc1ccc(C(=O)Nc2ccccc2C(=O)NC(C(=O)NCc2ccco2)C(C)C)cc1 (centres undefined),active: -61%
16,CC1CCCN(Cc2csc(N)n2)C1 (centres undefined),inconclusive: -30.2%
17,Clc1ccc(OCCN2CCOCC2)cc1Cl,active: -66.4%
18,Cc1ccc(-n2nc3c(=O)n(CCCC(=O)NCCc4ccccc4C)nc(C)c3c2C)cc1,inconclusive: -37%
19,Cc1ccc(NC(=O)NCCCN2CCCC2=O)cc1C,inactive: -9.15%
20,CCOC(=O)Cn1c(=NC(=O)c2sc3ccccc3c2Cl)sc2cc(S(N)(=O)=O)ccc21,inconclusive: -36.6%
21,COc1cc(CC(=O)N2CCN(S(=O)(=O)c3ccc(C(C)C)cc3)CC2)cc(OC)c1OC,inactive: -28.4%
22,CCn1c(SCC(=O)c2ccc(Cl)cc2)nnc1-c1ccoc1C,active: -61.3%
23,CCCC(=O)Nc1nnc(-c2cccc(OCC)c2)s1,inactive: 8.47%

row,Compound,"max response, negative = inhibition"
1,CC(Cc1ccccc1)N/C=C1\CC(=O)NC1=O (centres undefined),inconclusive: -30.8%
2,CC(C)(C)CN1C(N)=NC[C@@H]1Cc1ccc(O)cc1,inactive: 0%
3,COC(=O)C1(C)NC(c2ccco2)C2C(=O)N(c3ccc(C)cc3)C(=O)C21 (centres undefined),inconclusive: -32.8%
4,CCC(C)N(C(=O)COC(=O)c1ccccc1SCC(=O)N1CCCC1)C1CCS(=O)(=O)C1 (centres undefined),inactive: 0.223%
5,COc1ccc(C(=O)/C=C/c2ccccc2C(F)(F)F)cc1,inconclusive: -38.7%
6,Cc1ccccc1N1CCN(C2CCCN(C(=O)c3ocnc3C)C2)CC1 (centres undefined),inconclusive: -32.9%
7,COc1ccccc1Oc1ccc(S(=O)(=O)NCc2ccccn2)cc1,active: -78.9%
8,Cc1ccccc1OCCn1c(=O)oc2ccccc21,inconclusive: -30.2%
9,O=C(CN1C(=O)c2ccccc2C1=O)OCCOCCN=C1NS(=O)(=O)c2ccccc21,inconclusive: -30.4%
10,C=CCNC(=O)N1c2ccccc2Sc2ccccc21,inconclusive: -35.6%
11,CCCS(=O)(=O)NC(=O)C1(C)CCCN(C(=O)/C=C/c2ccccc2)C1 (centres undefined),inconclusive: -35.5%
12,COc1cccc(C#Cc2c(CO)[nH]c3ccccc23)c1,inconclusive: -32.1%
13,COc1ccc(-c2noc(N3CCC(C(=O)NCCCN4CC(C)CC(C)C4)CC3)n2)cc1 (centres undefined),inconclusive: -40.6%
14,O=[N+]([O-])c1ccc(O)c(/C=N/n2cnnc2)c1,active: -83%
15,FC(F)(F)c1cc(-c2cccs2)nc(N2CCOCC2)n1,active: -57.6%
16,CC(OC(=O)c1nc(Cl)ccc1Cl)C(=O)c1ccccc1 (centres undefined),inconclusive: -46.8%
17,CCCCNCCCOc1cc(Cl)ccc1Cl,inconclusive: -37.8%
18,COc1ccc(CNCCCSc2ncccn2)cc1OC,active: -65%
19,CCc1cccc(C)c1NC(=S)NCc1ccccc1,inconclusive: -40.8%
20,Cc1ccc(N/N=C2\CS(=O)(=O)N(C)c3ccsc32)cc1,inconclusive: -30.1%
